# Source: PubChem BioAssay AID504467 (National Center for Advancing Translational Sciences (NCATS), 2011)
# The campaign covered roughly 330,000 compounds. About 7,700 (2.3%) were called active. This list was built around the results that the source calls inconclusive (neither active nor inactive); the mix of calls is not that of the screen. Calls come from the whole dose curve; as a rule, active = well fitted inhibition curve with a large enough effect; inconclusive = small, poorly fitted or top-dose-only effect, or effect the other way; inactive = flat fitted curve, though single readings scatter. Where the call is inconclusive, the potency comes from a doubtful curve fit.
# Experiment: qHTS screen for small molecules that inhibit ELG1-dependent DNA repair in human embryonic kidney (HEK293T) cells expressing luciferase-tagged ELG1; note: nearly all actives have a fitted effect of over 55% in size
# Settings: HEK293T ELG1-luciferase reporter, luminescence, 16 h, DNA damage induced by 5-fluorouridine; activity change, negative = inhibition: at 46.1 µM (top of the series)
# Procedure, shortened: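 Luminescence from the luciferase reporter, measured 30 min after ONE-Glo reagent at room temperature, was the read-out. Beforehand, 2,000 cells per well were exposed for 16 hr at 37 °C to 5-fluorouridine together with compound or vehicle.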
# % is set by controls: 0 for no effect and ±100 for the full control effect; potency is the fitted concentration of half-maximal effect.
SMILES,Potency,"activity change, negative = inhibition"
CCCCOC(=O)Nc1cccc(C(C)=O)c1,"inconclusive: 14.6 µM [activator, partial curve]",
CN1C(=O)CC(C(=O)Nc2ccccc2F)SC1=Nc1ccc2c(c1)OCO2 (stereo unspecified),"inconclusive: 29.1 µM [inhibitor, single point]",
O=C(CSc1nnc2ccccn12)NC(=O)NC1CCCC1,"inconclusive: 11.6 µM [activator, partial curve, poor fit]",
CC1CCN(S(=O)(=O)c2ccc(C(=O)Nc3nnc(C4=COCCO4)o3)cc2)CC1,"inconclusive: 25.9 µM [inhibitor, single point]",
COc1ccccc1C(c1nnnn1Cc1ccccc1)N1CCN(c2nc3ccccc3s2)CC1 (stereo unspecified),"inconclusive: 23.1 µM [inhibitor, single point]",
O=c1oc2cc(O)ccc2cc1-c1ccccc1,"inconclusive: 16.4 µM [activator, partial curve]",
O=C(CNC(=O)OCc1ccccc1)Oc1cc2oc(=O)cc(-c3ccccc3)c2cc1Cl,"inconclusive: 13 µM [inhibitor, partial curve]",
C=CC[n+]1c(-c2ccc(OCC)cc2)csc1NNC(=O)Nc1ccccc1,"inconclusive: 4.61 µM [inhibitor, partial curve, poor fit]",
O=C(CSc1nnc(NC(=O)c2cccc(F)c2)s1)NCC1CCCO1 (stereo unspecified),"inconclusive: 20.6 µM [activator, partial curve]",
CC1c2cc3c(cc2CCN1C(=O)c1cccc(F)c1)OCCCO3 (stereo unspecified),,inactive: -22.7%
Cc1ccc(NC(=O)CNCc2cccs2)c(Br)c1,"inconclusive: 20.6 µM [activator, single point]",
CCC(=O)Nc1nc2ccc(NC(=O)c3cc(OC)c(OC)c(OC)c3)cc2s1,"inconclusive: 23.1 µM [inhibitor, single point]",
COc1ccc(Cc2nc(C(=O)NCc3ccccc3OC)cs2)cc1,,inactive: -7.26%
CCN(CC)CCNC(=O)c1cc(Nc2ccc(OC)c(OC)c2)nc2ccccc12,,inactive: 0.269%
Cc1ccc(N2C(=O)C(Cl)=C(Nc3c(C)n(C)n(-c4ccccc4)c3=O)C2=O)cc1,,inactive: -2.45%
O=C(CSc1ncnc2ccccc12)NCC(=O)c1ccccc1,,inactive: 14.8%
CC(=O)c1c(C)n(-c2ccc(Br)cc2)c2ccc(O)cc12,,inactive: -14.5%
COc1ccc(Cl)cc1NC(=O)C1CCCN(S(=O)(=O)c2cccc3nonc23)C1 (stereo unspecified),,inactive: -13.4%
COc1ccc(-c2cc(-c3ccccc3O)[nH]n2)cc1,"inconclusive: 1.84 µM [activator, full curve]",
COc1ccc(N2CC(C(=O)N(C)CC(=O)Nc3ccc(Cl)c(C(F)(F)F)c3)CC2=O)c(OC)c1 (stereo unspecified),"inconclusive: 29.1 µM [inhibitor, single point]",
COc1cccc(OCCNCc2ccccc2)c1,,inactive: 1.19%
COc1ccc(OC)c(S(=O)(=O)NCc2nc3nc(C)cc(C)n3n2)c1,,inactive: 0%
Cc1ccc(NC(=O)C2CCCN(S(=O)(=O)c3ccc4[nH]c(=O)ccc4c3)C2)c(C)c1 (stereo unspecified),,inactive: -2.2%

# Sorted by SMILES length (falling): some entries from above
SMILES,Potency,"activity change, negative = inhibition"
Cc1ccc(NC(=O)C2CCCN(S(=O)(=O)c3ccc4[nH]c(=O)ccc4c3)C2)c(C)c1 (stereo unspecified),,inactive: -2.2%
Cc1ccc(N2C(=O)C(Cl)=C(Nc3c(C)n(C)n(-c4ccccc4)c3=O)C2=O)cc1,,inactive: -2.45%
CN1C(=O)CC(C(=O)Nc2ccccc2F)SC1=Nc1ccc2c(c1)OCO2 (stereo unspecified),"inconclusive: 29.1 µM [inhibitor, single point]",

# Further compounds follow:

SMILES,Potency,"activity change, negative = inhibition"
COc1ccc(C(=O)Nc2scc(-c3ccc(Cl)cc3Cl)c2C(N)=O)cc1,"inconclusive: 2.91 µM [activator, partial curve, poor fit]",
CCn1c(/C=C/c2ccccc2C)nc2ccccc2c1=O,"inconclusive: 18.3 µM [inhibitor, partial curve, poor fit]",
CCOc1ccc(NC(=O)COc2ccc(C(=O)NC3CCCc4ccccc43)cc2OC)cc1 (stereo unspecified),"inconclusive: 29.1 µM [activator, single point]",
O=C(NNC(=O)c1ccccc1Br)c1cccs1,"inconclusive: 18.3 µM [activator, single point]",
Cc1cc(NCc2ccccn2)nc2ccccc12,"inconclusive: 16.4 µM [activator, partial curve, poor fit]",
O=C(O)c1cccc(CSc2nnc(-c3ccc(Cl)cc3)o2)c1,,inactive: 27.6%
COc1ccc(Nc2sc(C(=O)Nc3cccc(Cl)c3)c(N)c2C(=O)Nc2ccccc2OC)cc1,,inactive: -17.1%
CC(=O)Nc1ccc(S(=O)(=O)NCc2nc(-c3ccc(C)cc3)no2)cc1,,inactive: -7.25%
COc1ccccc1N1CCN(C(=O)C2CCN(S(=O)(=O)c3ccc4c(c3)CC(C)N4C(=O)C3CC3)CC2)CC1 (stereo unspecified),"inconclusive: 20.6 µM [inhibitor, partial curve, poor fit]",
COC(=O)c1cc(Nc2cc(C)c3ccc(O)cc3n2)cc(C(=O)OC)c1,"inconclusive: 3.66 µM [inhibitor, single point]",
CC12CC(NC(=O)N1CCc1ccccc1)c1cc(Cl)ccc1O2 (stereo unspecified),"inconclusive: 14.6 µM [inhibitor, partial curve, poor fit]",
O=C(COC(=O)c1ccc(O)cc1O)Nc1ccc2c(c1)OCCO2,"inconclusive: 16.4 µM [activator, single point]",
CCOC(=O)c1sc(NC(=O)c2c(CC)noc2C)nc1C,,inactive: -12.6%
CC(=O)c1cc2c(cc1NC(=O)Cn1nc(-c3ccc(C)cc3)ccc1=O)OCO2,,inactive: 4.4%
OCCCCNCc1ccc(OCc2ccccc2Cl)cc1,"inconclusive: 29.1 µM [activator, single point]",
CCN(CC(=O)Nc1ccc(NC(C)=O)cc1)C(=O)C1CCCC1,,inactive: 5.69%
CCCCNc1ncnc2c1cnn2-c1ccc(C)cc1C,,inactive: -0.636%
Fc1ccc(Nc2nc(N3CCOCC3)nc(N3CCOCC3)n2)cc1Cl,"inconclusive: 2.06 µM [inhibitor, full curve]",
CCOC(=O)c1[nH]c2ccc(OC)cc2c1NC(=O)CN1CCC2(CC1)OCCO2,"inconclusive: 18.4 µM [inhibitor, partial curve]",
O=C(Nc1ccc(N=Nc2ccccc2)cc1)c1ccccc1Cl,"inconclusive: 6.51 µM [activator, partial curve]",
C=CCOc1nc2c(c(=O)n(Cc3ccc(Cl)cc3)c(=O)n2C)n1C,,inactive: -22.8%
Cc1ccc(CSc2nc3c(cc2C#N)CCC3)cc1,"inconclusive: 20.6 µM [activator, single point]",
COc1cccc(/C=N/Nc2ncnc3scc(-c4ccccc4)c23)c1O,active: 7.31 µM,
